Assay results: article PMC8938454
Results are given in words; binding and its absence hold for the method and conditions named. In cells and extracts the contact can be indirect. Binding can be weak; no strength is given.

Legend:
[1] = molecular target: T1, RUFY3, endogenous in HEK293T (human (endogenous in HEK293T)) (UniProt Q7L099); assay: co-IP; endogenous IP from HEK293T cell lysates with antibody-conjugated resin (anti-Arl8, anti-RUFY3 or anti-JIP4; mouse IgG resin as control); in Fig. 5l cells treated with control or RUFY3 siRNA
T1 sequence: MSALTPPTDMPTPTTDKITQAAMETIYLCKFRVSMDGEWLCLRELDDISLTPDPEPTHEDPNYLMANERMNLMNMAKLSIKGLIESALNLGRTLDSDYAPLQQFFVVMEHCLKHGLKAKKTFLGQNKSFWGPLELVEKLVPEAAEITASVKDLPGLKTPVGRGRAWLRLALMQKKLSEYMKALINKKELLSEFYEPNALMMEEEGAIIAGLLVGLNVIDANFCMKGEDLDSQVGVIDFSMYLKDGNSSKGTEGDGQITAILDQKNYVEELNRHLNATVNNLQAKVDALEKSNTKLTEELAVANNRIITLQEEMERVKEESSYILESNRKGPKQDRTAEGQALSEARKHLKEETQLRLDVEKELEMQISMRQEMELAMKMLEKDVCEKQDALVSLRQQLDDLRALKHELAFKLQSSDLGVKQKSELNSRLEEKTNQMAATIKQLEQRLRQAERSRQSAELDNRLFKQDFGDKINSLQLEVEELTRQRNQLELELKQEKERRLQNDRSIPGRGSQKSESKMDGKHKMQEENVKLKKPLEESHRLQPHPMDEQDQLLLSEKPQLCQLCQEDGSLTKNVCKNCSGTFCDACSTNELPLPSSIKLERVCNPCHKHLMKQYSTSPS

[2] = molecular target: T2, JIP4/SPAG9 scaffolding protein, endogenous in HEK293T (human (endogenous in HEK293T)) (UniProt O60271); assay: as above
T2 sequence: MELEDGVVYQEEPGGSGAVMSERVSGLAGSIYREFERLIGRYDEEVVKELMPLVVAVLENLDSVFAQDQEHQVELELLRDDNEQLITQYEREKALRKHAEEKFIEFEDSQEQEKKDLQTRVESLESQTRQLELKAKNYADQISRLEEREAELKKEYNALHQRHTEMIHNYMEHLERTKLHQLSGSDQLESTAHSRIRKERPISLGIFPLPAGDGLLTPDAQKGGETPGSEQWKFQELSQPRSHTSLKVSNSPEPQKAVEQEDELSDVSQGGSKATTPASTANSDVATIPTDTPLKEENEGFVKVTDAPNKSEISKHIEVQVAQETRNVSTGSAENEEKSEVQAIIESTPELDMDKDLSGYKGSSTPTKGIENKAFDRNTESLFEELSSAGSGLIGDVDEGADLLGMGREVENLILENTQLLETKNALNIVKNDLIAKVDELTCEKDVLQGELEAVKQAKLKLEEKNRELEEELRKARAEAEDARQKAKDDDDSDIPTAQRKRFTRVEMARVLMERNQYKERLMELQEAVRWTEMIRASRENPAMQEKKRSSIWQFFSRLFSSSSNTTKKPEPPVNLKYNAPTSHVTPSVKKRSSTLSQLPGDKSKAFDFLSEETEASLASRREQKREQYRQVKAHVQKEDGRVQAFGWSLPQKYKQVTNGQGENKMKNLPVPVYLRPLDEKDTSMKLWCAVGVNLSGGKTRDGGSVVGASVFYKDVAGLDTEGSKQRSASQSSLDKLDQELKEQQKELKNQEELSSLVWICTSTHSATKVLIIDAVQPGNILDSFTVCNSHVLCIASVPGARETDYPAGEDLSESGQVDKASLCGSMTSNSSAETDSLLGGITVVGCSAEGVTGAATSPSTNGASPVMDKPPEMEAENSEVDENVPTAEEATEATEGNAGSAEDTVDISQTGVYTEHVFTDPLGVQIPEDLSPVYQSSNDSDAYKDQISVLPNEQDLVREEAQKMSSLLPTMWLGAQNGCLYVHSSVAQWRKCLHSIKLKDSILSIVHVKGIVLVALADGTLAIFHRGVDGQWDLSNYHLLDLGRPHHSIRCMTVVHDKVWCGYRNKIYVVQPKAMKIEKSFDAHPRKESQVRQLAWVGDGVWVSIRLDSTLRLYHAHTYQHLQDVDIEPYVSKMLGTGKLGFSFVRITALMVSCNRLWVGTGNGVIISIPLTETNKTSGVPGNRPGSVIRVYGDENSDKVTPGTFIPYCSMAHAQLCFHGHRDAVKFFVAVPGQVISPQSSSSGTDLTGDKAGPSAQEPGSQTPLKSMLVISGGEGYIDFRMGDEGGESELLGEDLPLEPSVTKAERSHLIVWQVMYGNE

binding [1]: binds
binding [2]: binds
Substance: dynein intermediate chain (DIC), endogenous in HEK293T (human (endogenous in HEK293T))
